From doi:10.1101/2020.11.29.402537
No constants are given. Whether binding was seen depends on the method and setting. For some of these results: In cells and extracts the contact can be indirect. Some entries that bind do so weakly or less than the wild type. Where a sequence is shown, tags or fusion partners need not be part of it. Each block holds one molecule with its values, some of them ahead of it.

Chains of the proteins cited; added tags and fusions are not shown.
UniProt P53350: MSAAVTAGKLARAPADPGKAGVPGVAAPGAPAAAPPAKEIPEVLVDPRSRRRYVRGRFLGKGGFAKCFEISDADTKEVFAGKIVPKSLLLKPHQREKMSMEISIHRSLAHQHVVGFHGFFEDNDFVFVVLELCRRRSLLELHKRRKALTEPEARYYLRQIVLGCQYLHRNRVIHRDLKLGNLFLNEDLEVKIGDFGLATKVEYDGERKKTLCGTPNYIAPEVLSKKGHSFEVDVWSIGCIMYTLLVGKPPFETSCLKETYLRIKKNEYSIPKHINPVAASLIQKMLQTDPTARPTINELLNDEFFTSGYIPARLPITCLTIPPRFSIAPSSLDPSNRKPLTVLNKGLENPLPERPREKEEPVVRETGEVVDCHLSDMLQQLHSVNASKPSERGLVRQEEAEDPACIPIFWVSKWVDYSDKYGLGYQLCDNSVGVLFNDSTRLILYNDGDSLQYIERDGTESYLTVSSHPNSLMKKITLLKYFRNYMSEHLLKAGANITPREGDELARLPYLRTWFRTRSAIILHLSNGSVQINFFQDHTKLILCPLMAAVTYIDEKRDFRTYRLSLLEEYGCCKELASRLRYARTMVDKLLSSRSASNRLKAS

What was measured:
[1] = molecular target: T1, EGFP-hMeikin N-terminal Separase cleavage fragment (N-Meikin; amino acids 1-154) (human); test: co-IP
T1 sequence: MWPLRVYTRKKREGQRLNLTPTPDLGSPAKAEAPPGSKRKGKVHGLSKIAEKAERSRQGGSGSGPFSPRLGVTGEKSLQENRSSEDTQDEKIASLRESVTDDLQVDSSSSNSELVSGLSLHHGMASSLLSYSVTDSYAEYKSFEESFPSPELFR

[2] = molecular target: T2, EGFP-hMeikin C-terminal Separase cleavage fragment (C-Meikin; amino acids 155-373) (human); test: co-IP
T2 sequence: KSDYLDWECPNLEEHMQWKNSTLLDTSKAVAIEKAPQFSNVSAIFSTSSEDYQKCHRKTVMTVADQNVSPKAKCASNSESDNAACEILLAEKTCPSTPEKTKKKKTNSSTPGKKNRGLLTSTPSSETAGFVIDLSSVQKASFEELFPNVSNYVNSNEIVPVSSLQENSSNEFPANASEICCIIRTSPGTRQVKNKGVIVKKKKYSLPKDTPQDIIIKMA

[3] = molecular target: T3, EGFP-hMeikin C-terminal kinetochore targeting domain (amino acids 328-373) (human); test: co-IP
T3 sequence: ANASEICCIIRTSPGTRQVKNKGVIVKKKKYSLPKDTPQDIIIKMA

[4] = molecular target: T4, H2B-mScarlet-tagged N-terminal Meikin fragment of the cleavage sensor (after Separase cleavage) (human); test: dual-color H2B-cleavage sensor, live-cell imaging
T4 sequence: T1 sequence

binding [1]: no binding | binding [2]: binds | binding [3]: no binding
Molecule: Polo-like kinase 1 (Plk1) (from UniProt P53350 1-603) (enzyme)

binding [4]: no binding
B1: mNeonGreen-tagged C-terminal Meikin fragment of the cleavage sensor (after Separase cleavage) (domain or fragment, UniProt A0A087WXM9 155-332)
chain: KSDYLDWECPNLEEHMQWKNSTLLDTSKAVAIEKAPQFSNVSAIFSTSSEDYQKCHRKTVMTVADQNVSPKAKCASNSESDNAACEILLAEKTCPSTPEKTKKKKTNSSTPGKKNRGLLTSTPSSETAGFVIDLSSVQKASFEELFPNVSNYVNSNEIVPVSSLQENSSNEFPANASE
